In article PMC12217462 (Antimicrobial Agents and Chemotherapy, 2025):

System: HCT8 cells
Test: Cytotoxicity on confluent monolayer HCT8 cells (Promega CellTiter Aqueous One MTS assay)
Format: cell-based, human
Details: TC50 HCT8 relative to EC50 B. duncani
Description: Human HCT8 cells were grown in tissue culture flasks until a confluent monolayer was achieved. […] Cells were incubated with the drug for 48 hours. Promega CellTiter Aqueous One Solution Cell Proliferation Assay (MTS) (PRG3580) was commercially obtained and used to ascertain cell viability, with […] measured using a Biotek microplate reader. Cells incubated in 0.5% DMSO served as a positive growth control and comparator arm.

Question: How did the Therapeutic index turn out when `O=C(NO)c1cnc(N2C[C@@H]3[C@H](C2)[C@H]3NCc2ccc3cc(F)ccc3n2)nc1` [Nanatinostat] was run?
Answer: Its Therapeutic index is 1,900.

Question: `CCN(CC)Cc1ccc2cc(COC(=O)Nc3ccc(C(=O)NO)cc3)ccc2c1` [Givinostat] was tested. Which Therapeutic index did it give?
Answer: Its Therapeutic index is 190.

Question: How did the Therapeutic index turn out when `Nc1ccccc1NC(=O)c1ccc(CNC(=O)OCc2cccnc2)cc1` [Entinostat] was run?
Answer: Its Therapeutic index is 5.

Question: `O=C(/C=C/c1cccc(S(=O)(=O)Nc2ccccc2)c1)NO` [Belinostat] was tested. Which Therapeutic index did it give?
Answer: The Therapeutic index was 600.

Question: With `Cn1cc(CNCC2CCN(c3ncc(C(=O)NO)cn3)CC2)c2ccccc21` [Quisinostat] as the compound, how does the Therapeutic index read?
Answer: Its Therapeutic index is 38,000.

Question: With `Nc1ccccc1NC(=O)c1ccc(CNc2nccc(-c3cccnc3)n2)cc1` [Mocetinostat] as the compound, how does the Therapeutic index read?
Answer: The Therapeutic index was 23.

Question: `O=C(/C=C/c1ccc(CN(CCO)CCc2c[nH]c3ccccc23)cc1)NO` [Dacinostat] was tested. Which Therapeutic index did it give?
Answer: The Therapeutic index was 6,600.

Question: For `Cc1[nH]c2ccccc2c1CCNCc1ccc(/C=C/C(=O)NO)cc1` [Panobinostat], which Therapeutic index is on record?
Answer: The Therapeutic index was 16,000.

Question: With `CCCCc1nc2cc(/C=C/C(=O)NO)ccc2n1CCN(CC)CC` [Pracinostat] as the compound, how does the Therapeutic index read?
Answer: The Therapeutic index was 2,800.
